Data as given in PubChem BioAssay AID504784 (Drosophila RNAi Screening Center, 2011)
Aim: 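Fly genes whose silencing alters how much lipid cells keep in droplets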 (primary screen). Cells: Drosophila Kc167 embryonic cells. Reagents: long dsRNA against Drosophila genes, about 250 ng dsRNA per well. Duration: 4 days. Challenge: cells fed 400 µM oleic acid bound to BSA. Detection: 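Cells imaged and segmented; ratio of lipid droplet area to nuclear area, log-transformed, then normalised as a B-score over the screen; higher means more stored lipid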. Scale: droplet/nuclear area B-score: higher = more stored lipid (overstorage).
The screen tested about 17,000 reagents; this is a random part of those that have a named target and a result. 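Each column is one replicate's B-score; the combined score over replicates was not deposited, so single values may mislead.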 A plus sign joins genes that one reagent is predicted to hit. Further read-outs or replicates are left out here.

For l(3)L1231 (GeneID 41776) [DRSC16323], what does the deposit list?
droplet/nuclear area B-score, replicate 1: 1.8

For luna (GeneID 2768719) [DRSC05253], what does the deposit list?
droplet/nuclear area B-score, replicate 1: 0.554

Which result is listed for luna (GeneID 2768719) [DRSC06663]?
droplet/nuclear area B-score, replicate 1: 0.0337

For luna (GeneID 2768719) [DRSC07336], how do the results read?
droplet/nuclear area B-score, replicate 1: 0.912

With HDAC11 (GeneID 326120) [DRSC14280], how do the results read?
droplet/nuclear area B-score, replicate 1: 0.0474

What is on record for rpr (GeneID 40015) [DRSC11390]?
droplet/nuclear area B-score, replicate 1: 0.387

With CG12377 (retired record) (GeneID 40473) [DRSC11671], what does the deposit list?
droplet/nuclear area B-score, replicate 1: -0.672

How did the screen score CG12377 (retired record) (GeneID 40473) [DRSC11672]?
droplet/nuclear area B-score, replicate 1: -0.93

What is on record for apt (GeneID 37734) [DRSC04671]?
droplet/nuclear area B-score, replicate 1: 1.46

For apt (GeneID 37734) [DRSC23278], how do the results read?
droplet/nuclear area B-score, replicate 1: -0.428

For CASK (GeneID 42567) [DRSC14588], what does the deposit list?
droplet/nuclear area B-score, replicate 1: -0.825

For CASK (GeneID 42567) [DRSC16597], how do the results read?
droplet/nuclear area B-score, replicate 1: 0.118

Which result is listed for CASK (GeneID 42567) [DRSC16598]?
droplet/nuclear area B-score, replicate 1: 0.0296

For CASK (GeneID 42567) [DRSC21917], what was measured?
droplet/nuclear area B-score, replicate 1: -0.258

With His3.3A (GeneID 33736) [DRSC03343], what does the deposit list?
droplet/nuclear area B-score, replicate 1: 2.97

How did the screen score Cad99C (GeneID 43528) [DRSC15050]?
droplet/nuclear area B-score, replicate 1: -1.55

What did the screen give for Cad99C (GeneID 43528) [DRSC16317]?
droplet/nuclear area B-score, replicate 1: -0.341

With Rad1 + Sws1 [DRSC00778], what does the deposit list?
droplet/nuclear area B-score, replicate 1: 0.124

With Nepl6 (GeneID 33893) [DRSC03242], how do the results read?
droplet/nuclear area B-score, replicate 1: 2.02

With CG33468 (GeneID 2768833) [DRSC22940], how do the results read?
droplet/nuclear area B-score, replicate 1: 0.194

How did the screen score CG10803 (GeneID 31320) [DRSC17763]?
droplet/nuclear area B-score, replicate 1: -0.899

With Mct1 (GeneID 31198) [DRSC18681], what does the deposit list?
droplet/nuclear area B-score, replicate 1: -0.187

What did the screen give for Cyp4e3 (GeneID 34291) [DRSC03306]?
droplet/nuclear area B-score, replicate 1: 2.31

For Mal-A2 (GeneID 35825) [DRSC07460], what does the deposit list?
droplet/nuclear area B-score, replicate 1: 2.55

For Rpn11 (GeneID 33738) [DRSC03422], what does the deposit list?
droplet/nuclear area B-score, replicate 1: -0.374

With CG3588 (GeneID 31278) [DRSC18473], how do the results read?
droplet/nuclear area B-score, replicate 1: -0.334

With CG10339 (GeneID 37854) [DRSC04065], what was measured?
droplet/nuclear area B-score, replicate 1: 0.574

How did the screen score Pex1 (GeneID 45460) [DRSC11358]?
droplet/nuclear area B-score, replicate 1: -0.682

What did the screen give for Rh5 (GeneID 34615) [DRSC03412]?
droplet/nuclear area B-score, replicate 1: -0.0318

What is on record for CG13048 (GeneID 39789) [DRSC09929]?
droplet/nuclear area B-score, replicate 1: 0.364

For CG13252 (GeneID 40289) [DRSC11700], what does the deposit list?
droplet/nuclear area B-score, replicate 1: -0.814

What is on record for Vps60 (GeneID 39964) [DRSC10610]?
droplet/nuclear area B-score, replicate 1: 0.849

For CG33469 (GeneID 2768832) [DRSC22900], how do the results read?
droplet/nuclear area B-score, replicate 1: 0.00241

With CG3987 (GeneID 41822) [DRSC15531], what does the deposit list?
droplet/nuclear area B-score, replicate 1: 0.0591

How did the screen score Sec63 (GeneID 38819) [DRSC11002]?
droplet/nuclear area B-score, replicate 1: 0.537

For NFAT (GeneID 32321) [DRSC19393], what was measured?
droplet/nuclear area B-score, replicate 1: 1.34

What did the screen give for pasha (GeneID 43728) [DRSC15295]?
droplet/nuclear area B-score, replicate 1: 0.405

With Scp1 (GeneID 3355102) [DRSC20799], what does the deposit list?
droplet/nuclear area B-score, replicate 1: 0.816

What is on record for Scp1 (GeneID 3355102) [DRSC20803]?
droplet/nuclear area B-score, replicate 1: 0.353

With Scp1 (GeneID 3355102) [DRSC20806], what does the deposit list?
droplet/nuclear area B-score, replicate 1: -1.93
